{"source": "patent US10278958B2", "about": "“IPA as a protective agent” (IXCELA, INC., priority 2012, dated 2019)", "test": "IPA levels in plasma of disease and control subjects (LC-EC array, archived and current studies)", "design": "species or system human"}
{"smiles": "O=C(O)CCc1c[nH]c2ccccc12", "note": "[IPA, indole-3-propionic acid]", "values": [{"measurement": "mean IPA", "setting": "Study 3, plasma, AD N=30", "result": 154.3}, {"measurement": "mean IPA", "setting": "Study 3, plasma, Controls n=30", "result": 189.3, "unit": "ng/mL"}, {"measurement": "mean IPA", "setting": "Study 4, plasma, ALS and Lower Motor Neuron Disease N=30", "result": 167.8, "unit": "ng/mL"}, {"measurement": "mean IPA", "setting": "Study 4, plasma, Controls N=30", "result": 192.3, "unit": "ng/mL"}, {"measurement": "mean IPA", "setting": "Study 6, plasma, ALS N=23", "result": 172.0}, {"measurement": "mean IPA", "setting": "Study 6, plasma, Control N=27", "result": 201.2}, {"measurement": "mean IPA", "setting": "Study 8, plasma, ALS N=48", "result": 172.7}, {"measurement": "mean IPA", "setting": "Study 8, plasma, Control N=56", "result": 201.4}, {"measurement": "mean IPA", "setting": "Study 10, plasma, Controls N=20", "result": 186.9}, {"measurement": "mean IPA", "setting": "Study 10, plasma, Un-medicated PD", "result": 172.2}, {"measurement": "mean IPA", "setting": "Study 11, plasma, Controls N=30", "result": 196.01}, {"measurement": "mean IPA", "setting": "Study 11, plasma, Un medicated PD", "result": 167.90}, {"measurement": "mean IPA", "setting": "Study 12, plasma, ischemic heart subjects N=20, 1 hour post mental stress test", "result": 161.3, "unit": "ng/mL"}, {"measurement": "mean IPA", "setting": "Study 13, jugular plasma, Hemorrhagic stroke N=18, contra lateral", "result": 112.09, "unit": "ng/mL"}, {"measurement": "mean IPA", "setting": "Study 13, jugular plasma, Hemorrhagic stroke N=18, ipsilateral", "result": 102.1, "unit": "ng/mL"}, {"measurement": "mean IPA", "setting": "Study 13, jugular plasma, ischemic stroke n=22, contra lateral", "result": 83.1, "unit": "ng/mL"}, {"measurement": "mean IPA", "setting": "Study 13, jugular plasma, ischemic stroke n=22, ipsilateral", "result": 88.7, "unit": "ng/mL"}]}
